We go through three molecules from doi:10.1101/749176.

Assay [1] deals with T1, mKO-PBP1a (Escherichia coli) (UniProt P02918).
T1 sequence: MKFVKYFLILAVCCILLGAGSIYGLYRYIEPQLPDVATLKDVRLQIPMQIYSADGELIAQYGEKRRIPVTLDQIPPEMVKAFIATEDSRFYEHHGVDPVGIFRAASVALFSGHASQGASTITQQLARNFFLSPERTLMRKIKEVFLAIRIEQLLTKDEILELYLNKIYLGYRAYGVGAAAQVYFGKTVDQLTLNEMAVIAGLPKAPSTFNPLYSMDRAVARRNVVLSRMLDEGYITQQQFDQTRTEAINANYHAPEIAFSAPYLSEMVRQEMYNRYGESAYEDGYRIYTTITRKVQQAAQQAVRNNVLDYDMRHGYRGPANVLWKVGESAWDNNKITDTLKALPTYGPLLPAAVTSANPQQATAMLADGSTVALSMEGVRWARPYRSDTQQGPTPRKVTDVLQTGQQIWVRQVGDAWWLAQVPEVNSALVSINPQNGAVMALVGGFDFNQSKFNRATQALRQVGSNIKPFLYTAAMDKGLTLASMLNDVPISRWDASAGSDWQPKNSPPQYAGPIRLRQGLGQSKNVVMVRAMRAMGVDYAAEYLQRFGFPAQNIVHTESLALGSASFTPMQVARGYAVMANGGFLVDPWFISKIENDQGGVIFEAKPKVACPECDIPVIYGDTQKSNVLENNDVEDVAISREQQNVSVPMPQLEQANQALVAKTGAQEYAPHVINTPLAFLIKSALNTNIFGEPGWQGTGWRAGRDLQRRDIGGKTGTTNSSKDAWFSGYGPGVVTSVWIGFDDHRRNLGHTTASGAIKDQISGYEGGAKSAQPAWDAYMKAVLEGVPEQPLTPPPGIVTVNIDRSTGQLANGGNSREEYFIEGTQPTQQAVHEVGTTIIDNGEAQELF
The assay can be described thus: FRET or BRET.

In assay [2] the target is mKO-FtsZ (Escherichia coli) (UniProt P0A9A6). The assay can be described thus: FRET or BRET. (In BRET a luciferase serves as donor, and the signal depends on an acceptor being close.)

Where a chain is given by its changes, count along the chain named. In names and notes the source's numbering stands. These are yes or no findings as the source states them, for the method shown. In cells and extracts the contact can be indirect. Some binding calls cover weakened binding; strength is not graded here. Sequences can lack the tags named with a protein.

B1: mCh-PBP1b (protein, UniProt P02919 1-844)
chain: MAGNDREPIGRKGKPTRPVKQKVSRRRYEDDDDYDDYDDYEDEEPMPRKGKGKGKGRKPRGKRGWLWLLLKLAIVFAVLIAIYGVYLDQKIRSRIDGKVWQLPAAVYGRMVNLEPDMTISKNEMVKLLEATQYRQVSKMTRPGEFTVQANSIEMIRRPFDFPDSKEGQVRARLTFDGDHLATIVNMENNRQFGFFRLDPRLITMISSPNGEQRLFVPRSGFPDLLVDTLLATEDRHFYEHDGISLYSIGRAVLANLTAGRTVQGASTLTQQLVKNLFLSSERSYWRKANEAYMALIMDARYSKDRILELYMNEVYLGQSGDNEIRGFPLASLYYFGRPVEELSLDQQALLVGMVKGASIYNPWRNPKLALERRNLVLRLLQQQQIIDQELYDMLSARPLGVQPRGGVISPQPAFMQLVRQELQAKLGDKVKDLSGVKIFTTFDSVAQDAAEKAAVEGIPALKKQRKLSDLETAIVVVDRFSGEVRAMVGGSEPQFAGYNRAMQARRSIGSLAKPATYLTALSQPKIYRLNTWIADAPIALRQPNGQVWSPQNDDRRYSESGRVMLVDALTRSMNVPTVNLGMALGLPAVTETWIKLGVPKDQLHPVPAMLLGALNLTPIEVAQAFQTIASGGNRAPLSALRSVIAEDGKVLYQSFPQAERAVPAQAAYLTLWTMQQVVQRGTGRQLGAKYPNLHLAGKTGTTNNNVDTWFAGIDGSTVTITWVGRDNNQPTKLYGASGAMSIYQRYLANQTPTPLNLVPPEDIADMGVDYDGNFVCSGGMRILPVWTSDPQSLCQQSEMQQQPSGNPFDQSSQPQQQPQQQPAQQEQKDSDGVAGWIKDMFGSN
Consider B1, for which the binding result in assay [1] was “no binding (tested: EfA less than 1.7 %)”.

B2: mCh-ZapA^I83E (dimeric ZapA mutant fused to mCh) (protein, UniProt P0ADS2 1-109)
chain: MSAQPVDIQIFGRSLRVNCPPDQRDALNQAADDLNQRLQDLKERTRVTNTEQLVFIAALNISYELAQEKAKTRDYAASMEQRERMLQQTIEQALLEQGRITEKTNQNFE
For B2, the binding result in assay [1] is “no binding (tested: EfA less than 1.7 %)”; in assay [2] it was “binds”.

B3: mCh-ZapA (wild type ZapA fused to mCh) (protein, UniProt P0ADS2 1-109)
chain: B2 chain with E83I
Regarding B3, the binding result in assay [1] is “no binding (tested: EfA less than 1.7 %)”.
